# The supplement of paper PMC8728848
# Some of the results follow.
# B1: PX14343I-pdi-501-30-501 (Parabacteroides distasonis) (protein)
# chain: SDQYSTETFWKTKEHASAGIMGCYNALKLWRSLHTMEFDMLTANAMPYNEANGTQAIGKGEHLSTTALIGSLWKNCYVGIGRTNTFIANVGGVDMDESEKAKMVGEAKFLRAFYYLSLVDKFGGVPLIIDAPNADEQAELPRNSKEEVVNQIVKDLEEAAAVLPDTYASSDLGRATKGAALALKARTLLYNSRWAEAAQAAKQVMESGVYQLFNDYRHFFSEDNKYNCEVIFDIEAKLPEYPTDYDQNIWRLNRPAPLKELVDTYLCVDGKTIEESPLYDPTRPYENRDPRLLKSIVCIGYPYLGKTITKEDVATTGFGVKKYTSYEDDVTIPLVERSAFNFILIRYAEVLLTYAEAQNEASGPDQSVYDAINQLRRRPDINMPEVPKGLTKDQMREVIRRERRIELTFEGLYYSDILRWKTAEKENNGMMHNYEGIEVVKRSFNPKRDYLWPIPYNQTVLNPNLEQNPNWD
# Key:
# Assay in all cases: glycan array binding signal (z-score within array); higher = stronger binding
# Details in all cases: glycan notation: IUPAC condensed, linker removed
# Gal3S6S(b1-4)GlcNAc = target: Gal3S6S(b1-4)GlcNAc
# Method in brief: (§1)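 The binding signal is a Z-score computed within each array. Data were drawn from 3228 arrays in the Consortium for Functional Glycomics database, restricted to those with a known protein sequence. Scores were averaged over arrays of the same protein sequence at different concentrations or buffers, and over linkers, and negative values can be taken as non-binding.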
# Gal3S6S(b1-4)GlcNAc6S = target: Gal3S6S(b1-4)GlcNAc6S
# Method in brief: as §1
# Gal4S(b1-4)GlcNAc = target: Gal4S(b1-4)GlcNAc
# Method in brief: as §1
# Gal4S6S(b1-4)GlcNAc = target: Gal4S6S(b1-4)GlcNAc
# Method in brief: as §1
# Gal6P(b1-4)GlcNAc = target: Gal6P(b1-4)GlcNAc
# Method in brief: as §1
# Gal6S(b1-3)GlcNAc = target: Gal6S(b1-3)GlcNAc
# Method in brief: as §1
# Gal6S(b1-3)GlcNAc6S = target: Gal6S(b1-3)GlcNAc6S
# Method in brief: as §1
# Gal6S(b1-4)Glc = target: Gal6S(b1-4)Glc
# Method in brief: as §1
# Gal6S(b1-4)Glc6S = target: Gal6S(b1-4)Glc6S
# Method in brief: as §1
# Gal6S(b1-4)GlcNAc = target: Gal6S(b1-4)GlcNAc
# Method in brief: as §1
# Gal6S(b1-4)GlcNAc6S = target: Gal6S(b1-4)GlcNAc6S
# Method in brief: as §1
# GalNAc(a1-3)Gal = target: GalNAc(a1-3)Gal
# Method in brief: as §1
# GalNAc(a1-3)GalNAc = target: GalNAc(a1-3)GalNAc
# Method in brief: as §1
# [1] = target: GalNAc(a1-3)GalNAc(b1-3)Gal(a1-4)Gal(b1-4)Glc
# Method in brief: as §1
# [2] = target: GalNAc(a1-3)GalNAc(b1-3)Gal(a1-4)Gal(b1-4)GlcNAc
# Method in brief: as §1
# GalNAc(b1-3)Gal = target: GalNAc(b1-3)Gal
# Method in brief: as §1
# [3] = target: GalNAc(b1-3)Gal(a1-4)Gal(b1-4)GlcNAc
# Method in brief: as §1
# [4] = target: GalNAc(b1-3)Gal(a1-4)Gal(b1-4)GlcNAc(b1-3)Gal(b1-4)Glc
# Method in brief: as §1
# [5] = target: GalNAc(b1-3)Gal(a1-6)Gal(b1-4)Glc
# Method in brief: as §1
# GalNAc(b1-3)GalNAc = target: GalNAc(b1-3)GalNAc
# Method in brief: as §1
# GalNAc(b1-3)GlcNAc = target: GalNAc(b1-3)GlcNAc
# Method in brief: as §1
# GalNAc(b1-4)Gal(b1-4)Glc = target: GalNAc(b1-4)Gal(b1-4)Glc
# Method in brief: as §1
# GalNAc(b1-4)GlcNAc = target: GalNAc(b1-4)GlcNAc
# Method in brief: as §1
# [6] = target: GalNAc(b1-4)GlcNAc(b1-2)Man
# Method in brief: as §1
# [7] = target: GalNAc(b1-4)GlcNAc(b1-2)Man(a1-3)[GalNAc(b1-4)GlcNAc(b1-2)Man(a1-6)]Man(b1-4)GlcNAc(b1-4)GlcNAc
# Method in brief: as §1
# [8] = target: GalNAc(b1-4)GlcNAc(b1-3)GalNAc(b1-4)GlcNAc
# Method in brief: as §1
# GalNAc(b1-4)GlcNAc6S = target: GalNAc(b1-4)GlcNAc6S
# Method in brief: as §1
# GalNAc(b1-6)GalNAc = target: GalNAc(b1-6)GalNAc
# Method in brief: as §1
# GalNAc3S(b1-4)GlcNAc = target: GalNAc3S(b1-4)GlcNAc
# Method in brief: as §1
# GalNAc3S(b1-4)GlcNAc3S = target: GalNAc3S(b1-4)GlcNAc3S
# Method in brief: as §1
# [9] = target: GalNAc3S(b1-4)[Fuc(a1-3)]GlcNAc
# Method in brief: as §1
# GalNAc4S6S(b1-4)GlcNAc = target: GalNAc4S6S(b1-4)GlcNAc
# Method in brief: as §1
# GalNAc6S(b1-4)GlcNAc = target: GalNAc6S(b1-4)GlcNAc
# Method in brief: as §1
# Glc(a1-4)Glc = target: Glc(a1-4)Glc
# Method in brief: as §1
# [10] = target: Glc(a1-4)Glc(a1-4)Glc(a1-4)Glc
# Method in brief: as §1
# Glc(a1-6)Glc(a1-6)Glc = target: Glc(a1-6)Glc(a1-6)Glc
# Method in brief: as §1
# [11] = target: Glc(a1-6)Glc(a1-6)Glc(a1-6)Glc
# Method in brief: as §1
# Glc(b1-4)Glc = target: Glc(b1-4)Glc
# Method in brief: as §1
binder,measurement,setting,value
B1,glycan array binding signal (z-score),Gal3S6S(b1-4)GlcNAc,0.636
same,glycan array binding signal (z-score),Gal3S6S(b1-4)GlcNAc6S,1.05
same,glycan array binding signal (z-score),Gal4S(b1-4)GlcNAc,-0.724
same,glycan array binding signal (z-score),Gal4S6S(b1-4)GlcNAc,0.386
same,glycan array binding signal (z-score),Gal6P(b1-4)GlcNAc,-0.19
same,glycan array binding signal (z-score),Gal6S(b1-3)GlcNAc,0.19
same,glycan array binding signal (z-score),Gal6S(b1-3)GlcNAc6S,0.179
same,glycan array binding signal (z-score),Gal6S(b1-4)Glc,0.085
same,glycan array binding signal (z-score),Gal6S(b1-4)Glc6S,-0.321
same,glycan array binding signal (z-score),Gal6S(b1-4)GlcNAc,0.216
same,glycan array binding signal (z-score),Gal6S(b1-4)GlcNAc6S,-0.366
same,glycan array binding signal (z-score),GalNAc(a1-3)Gal,-0.903
same,glycan array binding signal (z-score),GalNAc(a1-3)GalNAc,-1.17
same,glycan array binding signal (z-score),[1],0.12
same,glycan array binding signal (z-score),[2],-0.071
same,glycan array binding signal (z-score),GalNAc(b1-3)Gal,-0.105
same,glycan array binding signal (z-score),[3],-0.047
same,glycan array binding signal (z-score),[4],0.203
same,glycan array binding signal (z-score),[5],-0.869
same,glycan array binding signal (z-score),GalNAc(b1-3)GalNAc,1.96
same,glycan array binding signal (z-score),GalNAc(b1-3)GlcNAc,0.842
same,glycan array binding signal (z-score),GalNAc(b1-4)Gal(b1-4)Glc,0.548
same,glycan array binding signal (z-score),GalNAc(b1-4)GlcNAc,-0.264
same,glycan array binding signal (z-score),[6],-0.071
same,glycan array binding signal (z-score),[7],-0.398
same,glycan array binding signal (z-score),[8],-0.425
same,glycan array binding signal (z-score),GalNAc(b1-4)GlcNAc6S,-0.372
same,glycan array binding signal (z-score),GalNAc(b1-6)GalNAc,-0.155
same,glycan array binding signal (z-score),GalNAc3S(b1-4)GlcNAc,0.257
same,glycan array binding signal (z-score),GalNAc3S(b1-4)GlcNAc3S,-0.18
same,glycan array binding signal (z-score),[9],-0.495
same,glycan array binding signal (z-score),GalNAc4S6S(b1-4)GlcNAc,0.126
same,glycan array binding signal (z-score),GalNAc6S(b1-4)GlcNAc,-0.518
same,glycan array binding signal (z-score),Glc(a1-4)Glc,0.63
same,glycan array binding signal (z-score),[10],-0.823
same,glycan array binding signal (z-score),Glc(a1-6)Glc(a1-6)Glc,0.049
same,glycan array binding signal (z-score),[11],0.048
same,glycan array binding signal (z-score),Glc(b1-4)Glc,-0.425

# No new results follow: entries from further up.
binder,measurement,setting,value
B1,glycan array binding signal (z-score),Gal6P(b1-4)GlcNAc,-0.19
same,glycan array binding signal (z-score),Gal6S(b1-3)GlcNAc,0.19
same,glycan array binding signal (z-score),Gal6S(b1-3)GlcNAc6S,0.179
